39 compounds from PubChem BioAssay AID445 (National Center for Advancing Translational Sciences (NCATS), 2006) can be followed below.

Some of the results follow. Shown are side measurements of this screen, not its main read-out; they come without a call. Compounds called inactive in the main read-out are mostly missing here. Words in brackets tell the shape of the fitted curve; partial curves, single points and poor fits give uncertain potencies.

This test is described as follows: IkB Signaling. As to conditions: ABC-DLBCL IkBa-CBG/CBR dual luciferase ratio (green luciferase fused to IkBa over red control in OCI-Ly3 lymphoma cells), 4 h. A digest of the protocol:
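In this assay, an IκBα–CBG68 fusion accumulates when IKK-driven degradation is blocked; native CBR normalizes for cell number. OCI-Ly3 cells were treated 4 h with compound and doxycycline, then green and red light read after Chroma-Glo addition.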

The mark [1] stands for this setting: measured here: control luc red channel unless noted.

What is called AC50 is the midpoint of the concentration-response curve, whichever way the signal moves. For the compound `O=C(Nc1ccc(Br)cc1)C1CCCN1S(=O)(=O)c1ccc(F)cc1` (stereo not given), under setting [1], the AC50 was 25.1 µM [falling, single point].

In the case of `COc1ccc(CNC(=O)c2oc3c(c2C)-c2nn(Cc4ccc(Cl)cc4)cc2CC3)cc1`, the half-maximal activity concentration (AC50) under setting [1] was 25.1 µM [falling, partial curve, poor fit].

Regarding `Cc1nnc(Sc2nc3c(c(=O)n(C)c(=O)n3C)n2Cc2ccc(Cl)cc2)s1`, under setting [1], the AC50 is 39.8 µM [rising, single point] [measured here: IkB-luc green channel].

Regarding `CCN(C(=O)c1cc2c(=O)oc3ccc(C)cc3c2s1)c1ccccc1C`, under setting [1], the AC50 is 3.98 µM [rising, partial curve].

Take `CCN(CC)S(=O)(=O)c1ccc2nc(NC(=O)c3cncc(Br)c3)sc2c1`: the concentration at half-maximal activity (AC50) under setting [1] is 6.31 µM [falling, partial curve].

As for `Cc1cccn2c(=O)c(C(=O)NC(C)c3ccccc3)cnc12` (stereo not given), the concentration at half-maximal activity (AC50) under setting [1] was 0.0251 µM [rising, full curve, poor fit].

As for `Cc1ccc(OCc2nc(-c3ccc(C(=O)NCc4ccc(OC(C)C)cc4)cc3)oc2C)cc1`, the concentration at half-maximal activity (AC50) under setting [1] is 39.8 µM [falling, single point].

In the case of `Cc1ccc(C(=O)c2cn(Cc3ccc(Cl)cc3)c3nc(C)ccc3c2=O)cc1`, the half-maximal activity concentration (AC50) under setting [1] is 20 µM [falling, partial curve, poor fit].

Turning to `COc1ccc(N2CCN(C(=O)CSc3n[nH]c(-c4ccccc4Cl)n3)CC2)cc1`, the AC50 under setting [1] is 3.16 µM [rising, single point].

Consider `Cc1cc(C)cc(N2C(=O)N(Cc3cccc(F)c3)c3ccccc3S2(=O)=O)c1`, for which the concentration at half-maximal activity (AC50) under setting [1] was 3.98 µM [rising, single point].

As for `COc1ccc(Nc2oc(-c3ccc(COc4ccccc4C)o3)nc2C#N)cc1`, the AC50 under setting [1] was 12.6 µM [falling, single point].

Turning to `Cc1cc(C)c2cc(CN(Cc3nnnn3C3CCCCC3)CC3CCCO3)c(=O)[nH]c2c1` (stereo not given), the AC50 under setting [1] was 31.6 µM [falling, partial curve].

Turning to `Cc1ccc(C(C)C)c(OCCSc2nc3ccccc3n2CC(O)CO)c1` (stereo not given), under setting [1], the AC50 was 25.1 µM [falling, partial curve].

For `CC(C)Cn1c(-c2ccc(S(=O)(=O)N3CCOCC3)cc2)csc1=Nc1cc(Cl)ccc1Cl`, the AC50 under setting [1] was 10 µM [falling, partial curve].

Turning to `COc1cccc(NC(=O)/C(C#N)=C/c2c(C)n(Cc3ccc(Cl)cc3)c3ccccc23)c1`, under setting [1], the AC50 is 1.58 µM [falling, full curve].

Regarding `C[C@@]12C(=O)OC(=O)[C@]1(C)[C@H]1CC[C@@H]2O1`, the AC50 reads like this: (measured here: IkB-luc green channel) 6.31 µM [rising, full curve]; (measured here: control luc red channel) 1.58 µM [rising, partial curve].

On to `CCOC(=O)c1cnc(SCc2nc(N)nc(Nc3ccc(F)cc3)n2)nc1N`, for which the half-maximal activity concentration (AC50) under setting [1] was 0.794 µM [rising, partial curve].

Take `CC(C)Nc1nnc(SCC(=O)Nc2ccc(F)cc2)s1`: the concentration at half-maximal activity (AC50) under setting [1] is 0.631 µM [falling, partial curve].

In the case of `O=C(NCc1ccco1)c1ccc2c(c1)N(Cc1ccc(Cl)cc1)C(=O)c1ccccc1S2`, the concentration at half-maximal activity (AC50) under setting [1] was 12.6 µM [falling, partial curve].

For `O=c1cc(-c2ccncc2)oc2ccccc12`, the AC50 under setting [1] was 12.6 µM [falling, partial curve].

For `CCOC(=O)c1c(N2C(=O)C3C4C=CC(O4)C3C2=O)sc2c1CCCC2` (stereo not given), the AC50 under setting [1] was 10 µM [falling, partial curve].

As for `CCOC(=O)Cc1csc(NC(=O)CSc2ncnc3c2cnn3-c2ccccc2Cl)n1`, the AC50 under setting [1] is 12.6 µM [falling, partial curve].

Take `COc1ccc(-c2nnc(SCc3ccccc3F)o2)cc1OC`: under setting [1], the AC50 is 1.26 µM [rising, full curve].

For the compound `CN(C)CCNc1oc(-c2ccc(COc3ccc(Cl)cc3)o2)nc1C#N`, the AC50 under setting [1] is 25.1 µM [falling, partial curve].

As for `COc1ccc(N2CCN(Cc3nnc(-c4cccc(Br)c4)o3)CC2)cc1`, the AC50 under setting [1] is 20 µM [falling, partial curve].

Turning to `COc1ccc(CCNC(=O)C(C)n2c(=O)cc(C(F)(F)F)c3c(C)nn(C)c32)cc1OC` (stereo not given), the AC50 under setting [1] was 12.6 µM [falling, partial curve].

Turning to `Cc1cc(C)cc(Oc2nc3c(C)cccn3c(=O)c2/C=C(\C#N)c2nc3ccccc3s2)c1`, under setting [1], the AC50 is 10 µM [falling, partial curve].

In the case of `CCc1ccc(C(=O)c2cn(Cc3ccc(F)cc3)c3cc(OC)c(OC)cc3c2=O)cc1`, under setting [1], the AC50 was 39.8 µM [falling, single point].

For the compound `Cc1ccc(Cl)cc1-n1ncc2c(N3CCN(Cc4ccccc4)CC3)ncnc21`, under setting [1], the half-maximal activity concentration (AC50) is 7.94 µM [falling, partial curve].

For `COCCNc1ncnc2ccc(-c3cccnc3)cc12`, the AC50 under setting [1] was 3.16 µM [rising, partial curve].

`COc1ccc(NC(=O)CSc2nc3c(oc4ccccc43)c(=O)n2Cc2ccco2)cc1Cl`: the AC50 under setting [1] was 20 µM [rising, partial curve] [measured here: IkB-luc green channel].

For `COc1ccc(CNC(=O)CN2C(=O)CSc3ccc(S(=O)(=O)N4CCC(C)CC4)cc32)cc1`, under setting [1], the concentration at half-maximal activity (AC50) is 15.8 µM [falling, single point].

Turning to `Cc1ccc(CCNc2ncnc3onc(-c4ccc(Cl)cc4)c23)cc1`, the AC50 under setting [1] was 39.8 µM [falling, single point].

Regarding `COc1cc(S(=O)(=O)NCCc2c(C)[nH]c3ccccc23)c(C)cc1C`, the AC50 under setting [1] is 39.8 µM [falling, partial curve].

Take `CN(C)S(=O)(=O)c1ccc(C(=O)NCCSc2c(-c3ccccc3)[nH]c3ccccc23)cc1`: under setting [1], the half-maximal activity concentration (AC50) was 3.16 µM [falling, full curve].

Turning to `O=[N+]([O-])c1cccc2c(Br)[nH]nc12`, the half-maximal activity concentration (AC50) under setting [1] is 15.8 µM [rising, partial curve, poor fit].

For the compound `Fc1cccc(-c2nnn3c2nc(NC2CCCCC2)c2ccccc23)c1`, under setting [1], the AC50 was 0.02 µM [falling, full curve].

`COc1ccc(NC(=O)C2=C(C)Nc3ncnn3C2c2cccn2C)cc1` (stereo not given): the AC50 under setting [1] is 0.794 µM [falling, full curve, poor fit].

Regarding `Cc1cccc(-n2c(CNC(=O)c3cccc(F)c3)nnc2SCC(=O)Nc2ccccc2F)c1`, under setting [1], the AC50 was 25.1 µM [falling, partial curve].
